# Measurements published in US20230250054A1, “SELECTIVE HISTONE DEACETYLASE 6 INHIBITORS” (The Board of Trustees of the University of Illinois, priority 2020, published 2023).
# Some of these results come from one statement about several compounds together.
# Test system: SM1 murine melanoma cells
# Assay: CellTox Green cytotoxicity assay in SM1 cells
# Assay type: cell-based
# Settings: 24 h
# Procedure: The SM1 murine melanoma cells were obtained from Dr. A. Ribas at the University of California, Los Angeles. WM164 human melanoma cells were obtained from ATCC. The cells were cultured in an incubator in RPMI 1640, 1% penicillin-streptomycin, and 10% fetal bovine serum at 37° C. with 5% CO2. […] For STAT3 phosphorylation assays, cells were pre-treated with or without HDAC6i (5 μM) for overnight followed by treatment with recombinant human IL-6 (Biolegend) for 20 min. PBS was added as a control. RAW 264.7 macrophages were purchased from ATCC and cultured in DMEM medium supplemented with 10% FBS, 1% non-essential amino acids, and 2-mercaptoethanol (50 μM). RAW macrophages were treated with 1 μM, 5 μM, and 10 μM of Suprastat overnight before collecting the lysates for immunoblot assay. Cytotoxicity assay was performed using CellTox Green (Promega, Cat #G8731) following the manufacturer's instructions, and fluorescence readings were obtained on Spectramax i3 (Molecular Devices) multimode plate reader at wavelengths EX 485 nm and EM 520 nm. SM1 cells were treated with compounds at various concentrations for 24 h to determine cytotoxicity.
row,SMILES,concentration at which cytotoxicity starts
1,"O=C(NO)c1ccc(CN(CCCCO)C(=O)Nc2ccccc2)cc1 [Compound 6c, reference compound]",> 25 µM
2,"NCc1ccc(NC(=O)N(CCCCO)Cc2ccc(C(=O)NO)cc2)cc1 [Compound 6a, 4-((3-(4-(Aminomethyl)phenyl)-1-(4-hydroxybutyl)ureido)methyl)-N-hydroxybenz-amide]",> 25 µM
